PubChem BioAssay AID1053208 | Peter MacCallum Cancer Centre | 2014
The deposit covers about 17,000 reagents; below is a part drawn at random. Over the whole deposit, 788 (4.7%) are marked active. 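Calls rest on z-score classes alone; an extra cut-off of viability at most 70% of control was not applied to them.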

Assay: 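Genes whose silencing cuts survival of bone tumour cells only with doxorubicin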 (primary screen)
Cells: mouse osteosarcoma cells, early-passage culture from an engineered mouse model of fibroblastic bone tumour
Reagents: siRNA pool against mouse genes, 40 nM
Timing: about 120 h (48 h before drug, then 72 h with drug)
Conditions: doxorubicin 100 nM for 72 h, roughly 30-40% inhibitory dose
Read-out: 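Viability read as ATP luminescence after 72 h of 100 nM doxorubicin or none, duplicate wells averaged, scaled to non-targeting siRNA, then expressed as robust z-scores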
Direction: viability z-score with doxorubicin and doxorubicin viability vs non-targeting: higher = more viable cells under doxorubicin; viability z-score without drug: higher = more viable cells with knock-down alone; z-score of drug to no-drug ratio: higher = less drug sensitisation by knock-down
Rule for the call: 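Called active if knock-down leaves viability unchanged without drug (z within -2 to 2) but lowers it with doxorubicin (z at or under -2)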

The first 5 entries, ahead of the listing:
no.	target	combined z-score class	viability z-score with doxorubicin	viability z-score without drug	z-score of drug to no-drug ratio	doxorubicin viability vs non-targeting	Outcome
1	Otc	no change with or without drug	-0.22	0.51	-0.45	0.92	inactive
2	Mrps2	no change with or without drug	-1.46	-0.17	-1.35	0.81	inactive
3	E2f5	high cell count with and without drug	2.81	3.04	0.79	1.19	inactive
4	Plcd3	no change with or without drug	0.56	1.35	-0.22	0.99	inactive
5	Abtb2	no change with or without drug	1.35	0.84	0.9	1.06	inactive

Results, repeating the preview:
no.	target	combined z-score class	viability z-score with doxorubicin	viability z-score without drug	z-score of drug to no-drug ratio	doxorubicin viability vs non-targeting	Outcome
1	Otc	no change with or without drug	-0.22	0.51	-0.45	0.92	inactive
2	Mrps2	no change with or without drug	-1.46	-0.17	-1.35	0.81	inactive
3	E2f5	high cell count with and without drug	2.81	3.04	0.79	1.19	inactive
4	Plcd3	no change with or without drug	0.56	1.35	-0.22	0.99	inactive
5	Abtb2	no change with or without drug	1.35	0.84	0.9	1.06	inactive
6	Nkx6-1	no change with or without drug	1.8	-0.51	2.47	1.1	inactive
7	Mdfi	no change with or without drug	1.12	1.01	0.56	1.04	inactive
8	Hipk3	no change with or without drug	0.22	1.35	-0.56	0.96	inactive
9	Adck1	no change with or without drug	0	0.17	0	0.94	inactive
10	Sqor	no change with or without drug	-0.67	-0.84	0	0.88	inactive
11	Tbc1d9	no change with or without drug	0.45	0.34	0.34	0.98	inactive
12	Gemin7	no change with or without drug	0.45	0.84	0	0.98	inactive
13	Fam193b	no change with or without drug	-0.79	-1.18	0.11	0.87	inactive
14	Nol7	low cell count without drug only	-0.67	-2.36	1.24	0.88	inactive
15	Or5b120	no change with or without drug	1.35	0.17	1.35	1.06	inactive
16	Rxra	no change with or without drug	-1.46	-0.67	-1.01	0.81	inactive
17	Tiam2	low cell count with doxorubicin only	-3.04	-1.52	-2.25	0.67	active
18	Skap2	high cell count without drug only	1.57	2.7	-0.11	1.08	inactive
19	Lama4	no change with or without drug	-0.67	-0.34	-0.34	0.88	inactive
20	Gmfg	no change with or without drug	0.11	0.17	0.11	0.95	inactive
21	Mmp2	no change with or without drug	0.45	0.84	0	0.98	inactive
22	Dnajc22	no change with or without drug	-0.67	-0.17	-0.45	0.88	inactive
23	Mrap	no change with or without drug	-1.35	1.18	-2.02	0.82	inactive
24	Osmr	no change with or without drug	-0.22	0.17	-0.22	0.92	inactive
25	Six3	no change with or without drug	0.22	-0.17	0.45	0.96	inactive
26	Cd2bp2	no change with or without drug	1.24	0.51	1.01	1.05	inactive
27	Pgm5	low cell count with doxorubicin only	-2.14	-0.51	-1.8	0.75	active
28	Dffa	no change with or without drug	0.56	-0.51	1.12	0.99	inactive
29	Prss46	no change with or without drug	0.34	0.84	-0.11	0.97	inactive
30	Hlcs	no change with or without drug	1.12	0.51	0.9	1.04	inactive
31	Foxa3	no change with or without drug	-0.34	0.51	-0.56	0.91	inactive
32	Rft1	no change with or without drug	0.22	0.17	0.22	0.96	inactive
33	Ndufab1	low cell count without drug only	-1.8	-5.23	2.7	0.78	inactive
34	Rab3d	no change with or without drug	-0.45	0.84	-0.9	0.9	inactive
35	Hoxb5	no change with or without drug	-0.45	-1.18	0.45	0.9	inactive
36	Icos	no change with or without drug	-0.22	0.17	-0.22	0.92	inactive
37	Tmprss12	no change with or without drug	-1.35	-0.34	-1.12	0.82	inactive
38	Vmn1r80	no change with or without drug	-0.56	-0.17	-0.34	0.89	inactive
39	Krt90	no change with or without drug	-0.45	-0.34	-0.11	0.9	inactive
40	Scml4	low cell count without drug only	-1.12	-2.19	0.45	0.84	inactive
41	Map3k9	no change with or without drug	1.12	0.84	0.67	1.04	inactive
42	Med29	high cell count with doxorubicin only	2.25	1.52	1.35	1.14	inactive
43	Ppm1b	no change with or without drug	-0.11	-1.18	0.9	0.93	inactive
44	Zmynd8	no change with or without drug	0	-1.01	0.9	0.94	inactive
45	Rlig1	no change with or without drug	-0.56	1.18	-1.24	0.89	inactive
46	Gm9801	no change with or without drug	1.12	1.35	0.34	1.04	inactive
47	Pth	no change with or without drug	1.01	-0.67	1.69	1.03	inactive
48	Habp4	no change with or without drug	-0.67	-0.34	-0.34	0.88	inactive
49	Lce3c	no change with or without drug	0.79	0.51	0.56	1.01	inactive
50	Sox15	no change with or without drug	0	1.01	-0.56	0.94	inactive
51	Cnga3	no change with or without drug	-0.56	0.17	-0.56	0.89	inactive
52	Or51k1	no change with or without drug	-0.67	-1.18	0.22	0.88	inactive
53	Bcl2l11	no change with or without drug	1.24	-0.84	2.14	1.05	inactive
54	Krt7	no change with or without drug	-0.45	0.67	-0.79	0.9	inactive
55	Insm2	no change with or without drug	-0.67	-0.51	-0.22	0.88	inactive
56	Ciao2b	no change with or without drug	-1.12	1.01	-1.69	0.84	inactive
57	Bdh1	no change with or without drug	0.34	0.17	0.34	0.97	inactive
58	Adcy6	no change with or without drug	0.22	-0.17	0.45	0.96	inactive
59	Rad9a	no change with or without drug	1.01	0.51	0.79	1.03	inactive
60	Otud5	no change with or without drug	-1.12	0.51	-1.35	0.84	inactive
61	Or51t4	low cell count without drug only	-1.57	-2.53	0.22	0.8	inactive
62	C530047H08Rik	no change with or without drug	0.11	0.84	-0.34	0.95	inactive
63	Nktr	no change with or without drug	0.67	-1.01	1.57	1	inactive
